# How the values were obtained:
# Experiment in all cases: inhibitory effect on proliferation of mutant FLT3-expressing 32D cell (intracellular ATP level)
# Format in all cases: cell-based
# [1] = system: FLT3-ITD+D698N-expressing 32D cell; settings: 72 h, Mutation type FLT3-ITD + D698N, day 3, ATP level, read-out: Effect determination (IC50 value class), proliferation
# Experimental: (§1) 32D cell line expressing FLT3 gene mutations (FLT3-ITD+D698N, +N676T) found according to the random mutagenesis analysis method was cultured for a predetermined period of time (setting: 37° C. and 5% CO2, steam saturated), and then the cells were plated on a 384-well plate at a cell concentration of 299 cells/well. The random mutagenesis analysis method was carried out according to the following reference document.
# (§2) Each of the test substances was dissolved in dimethyl sulfoxide (DMSO) to prepare a DMSO solution containing 20 mmol/L of the test substance. After serially diluting with DMSO and further diluting with a medium containing 10% serum, each of the test substance solutions having a concentration 10 times the final treatment concentration was prepared. […] In addition, a group (a positive control group) in which only DMSO containing no test substance was added to a well in which cells were plated and a group (a negative control group) in which only DMSO containing no test substance was added to a well in which only the medium was added were prepared. On day 3 after adding the test substance solution, the intracellular ATP level was measured with “Cell” ATP Assay reagent Ver. 2 (manufactured by TOYO B-Net Co., Ltd.) to evaluate cell viability.
# (§3) The suppression rate was determined by assuming that the amount of luminescence signal in the negative control group corresponded to the suppression of cell viability by 100% and the amount of luminescence signal in the positive control group corresponded to the suppression of cell viability by 0%. […] 3 (manufactured by ITOCHU Techno-Solutions Corporation).
# [2] = system: FLT3-ITD-expressing 32D cell; settings: 72 h, Mutation type FLT3-ITD, day 3, ATP level, read-out: Effect determination (IC50 value class), proliferation
# Experimental: as §1, §2, §3
# [3] = system: FLT3-ITD+N676T-expressing 32D cell; settings: 72 h, Mutation type FLT3-ITD + N676T, day 3, ATP level, read-out: Effect determination (IC50 value class), proliferation
# Experimental: as §1, §2, §3
compound,measurement,setting,value
"CO[C@@H]1[C@H](N(C)C(=O)c2ccccc2)C[C@H]2O[C@]1(C)n1c3ccccc3c3c4c(c5c6ccccc6n2c5c31)C(=O)NC4 [Midostaurin, 4′-N-benzoyl staurosporine, reference compound]",IC50,[1],10 to 50 nM
same,IC50,[2],5 to 10 nM
same,IC50,[3],50 to 100 nM

# Reference: patent US20210220355A1, “ANTITUMOR AGENT FOR ACUTE MYELOID LEUKEMIA” (FUJIFILM Corporation, priority 2018, published 2021)
